# Test results: PubChem BioAssay AID901 (National Center for Advancing Translational Sciences (NCATS), 2007)
# Some of the results follow. Shown are side measurements of this screen, not its main read-out; they come without a call. Compounds called inactive in the main read-out are mostly missing here. Potencies come from curve fits of mixed quality, noted in brackets.
# Assay: qHTS Assay for Identifying the Cell-Membrane Permeable IMPase Inhibitors
# Conditions: CHO-M1 cells, IP1 accumulation, HTRF TR-FRET ratio; measured here: donor channel 620 nm AC50
# Text: NCGC IMPase Assay Overview
# Lithium has been widely used for the treatment of bipolar disorder. But lithium has a narrow therapeutic index and it can cause side effects such as thirst, weight gain, tremor, polyuria and memory problems. Although the mechanism for lithium action in treatment of bipolar disorder is still not fully understood, inhibition of inositol monophosphatase (IMPase) and the subsequent depletion of the inositol pool in living cells have been implicated as the primary therapeutic benefit of lithium therapy. Therefore, a selective IMPase inhibitor with reduced side effects might be a good drug candidate to replace lithium for the treatment of bipolar disorder. Several IMPase inhibitors have been discovered previously. However, they are not suitable for therapeutic use because of their poor cell membrane penetrability or oral bioavailability; the development of new cell-permeable IMPase inhibitors is needed.
# IMPase catalyzes the hydrolysis of inositol-1-phosphate (IP1) to release free inositol. Binding of an agonist to a Gq coupled GPCR results in the activation of PLC, which hydrolyzes the PIP2 to form inositol-1,4,5-trisphosphate (IP3) and diacyl glycerol (DAG). While DAG activates protein kinase C (PKC), IP3 triggers the elevation of intracellular free Ca2+. The IP3 is very rapidly inactivated by hydrolysis to IP2, IP1 and then inositol by a series of enzymes including IMPase. Free inositols are used for synthesis of PI and thus start another inositol cycle.
# To identify new cell-permeable IMPase inhibitors, we developed a cell-based IMPase assay in which the cytosolic IP1 is measured by a time-resolved fluorescence resonance energy transfer (TR-FRET) assay. In this assay, an IP1 specific antibody is used to detect the labeled IP1 tracer. When the cell lysate contains the elevated IP1 due to the inhibition of IMPase, the TR-FRET between the labeled antibody and IP1 tracer is disrupted resulting in a reduction in the total signal. Since the TR-FRET is used, this cell-based assay is a homogenous assay without cell wash and medium change that is suitable for assay miniaturization and HTS.
# NCGC IMPase Assay Protocol Summary
# A Chinese hamster ovary (CHO) cell line stably expressing the M1 receptor (CHO-M1) was obtained from ATCC and maintained in F-12 Kaighn's media (Invitrogen, Carlsbad, CA, 21127) supplemented with 10 % FBS, 100 units/ml penicillin, 100 ug/ml streptomycin and 250 ug/ml geneticin at 37C, 5% CO2 in a humidified atmosphere. Before the assay, aliquots of cells were frozen and stored at -135C. The assay was performed in 1536-well format. Data are reported for both the ratio of the two emission wavelengths, and also for the component 'donor' channel, Em2=620. […] AC50 values were determined from concentration-response data modeled with the standard Hill equation.
# IMPase 1536-well assay protocol:
# (1) Plate 4 ul/well (2000 cells) of cell suspension from frozen CHO-M1 Cells in white, tissue culture treated 1536-well plates that are cultured at 37C, 5 % CO2 for 16 to 30 hours.
# (2) Add 23 nl/well of compound in DMSO solution. The final titration for each compound was between 0.6 nM and 46 uM.
# (3) Add 1 ul of carbachol (50 uM in stimulation buffer containing10mM HEPES, 1mM CaCl2, 0.5 mM MgCl2, 4.2 mM KCl, 146 mM NaCl, 5.5 mM glucose, 50mM LiCl, pH 7.4.
# (4) Incubation at 37C, 5 % CO2 for 30 min.
# (5) Add 1 ul/well of d2-conjugated IP1 (d2-IP1) and 1 ul/well of Eu+ cryptate conjugated anti-IP1 antibody (Eu+-Ab) prepared in the cell lysis buffer, both from the IP-One kit (Cisbio, MA).
# (6) Incubate at room temperature for 10 minutes.
# (7) Detect the assay plate (Ex = 320, Em1 =665 and Em2 620) in a ViewLux plate reader.
# inositol monophosphatase, IMPase, IMPase inhibitor, lithium, bipolar disorder, IP-One, HTRF, qHTS, NIH roadmap, NCGC
# Note: In the gene ID and protein GI references for this assay, rat IMPase is referenced instead of hampster as hamster accession numbers were not available.
row,Compound,AC50
1,CCN(CC)c1ccc([N+](=O)[O-])cc1C(=O)O,"20 nM [falling, full curve, poor fit]"
2,O=C(CN1CCC(C(=O)c2ccc(F)cc2)CC1)Nc1ccc(F)cc1,"1000 nM [falling, full curve]"
3,N#CC1=C2SCN(Cc3ccccc3)CN2C(=O)CC1c1cccs1 (centres undefined),"12600 nM [rising, partial curve]"
4,O=S(=O)(NC1c2cccc3cccc(c23)C1N1CCN(CCO)CC1)c1ccccc1 (centres undefined),"31.6 nM [rising, full curve, poor fit]"
5,O=C(Cc1ccccc1)Nc1nc2ccccc2[nH]1,"3160 nM [falling, partial curve]"
6,N=c1c(C(=O)NCc2ccccc2)cc2c(=O)n3ccccc3nc2n1CCCN1CCOCC1,"316 nM [falling, full curve, poor fit]"
7,CC1CN(S(=O)(=O)c2cccs2)CC(C)O1 (centres undefined),"89.1 nM [rising, full curve]"
8,Brc1cc(Br)c2ncnc(N3CCCCC3)c2c1,"12600 nM [rising, partial curve]"
9,CN(CCO)c1c2c(nc3cc(-c4cccc(F)c4)nn13)CCCC2,"5.01 nM [rising, full curve]"
10,Cn1nc([N+](=O)[O-])nc1Sc1ccc(Cl)cc1,"35500 nM [rising, single point]"
11,COC(=O)CSc1nc(-c2cccs2)ccc1C#N,"15800 nM [rising, single point]"
12,CCCCC(=O)Nc1ccc(C(=O)Nc2ccc(S(=O)(=O)N3CCCC3)cc2)cc1,"12600 nM [rising, single point]"
13,O=C(O)Cc1csc(NC(=O)c2ccco2)n1,"5010 nM [falling, full curve, poor fit]"
14,O=C(CSc1ncn(-c2ccccc2)n1)NCc1ccccc1,"22400 nM [falling, single point]"
15,CC(=O)c1c(C)[nH]c(C(=O)OCC(=O)C(C)(C)C)c1C,"63.1 nM [rising, full curve, poor fit]"
16,O=C1C(C23CC4CC(CC(C4)C2)C3)C(=O)N(c2ccccc2)N1c1ccccc1,"398 nM [falling, full curve]"
17,CCCCn1c(=N)n(CC(O)COc2ccc(C)cc2)c2ccccc21 (centres undefined),"25.1 nM [rising, full curve, poor fit]"
18,COc1ccc(NC(=O)CNS(=O)(=O)c2ccccc2)cc1Cl,"22400 nM [falling, partial curve, poor fit]"
19,O=C1c2ccccc2C(=O)N1CCCc1nc(-c2ccncc2)no1,"15.8 nM [rising, full curve, poor fit]"

# Some of these compounds in order of molecular weight, ascending:
row,Compound,AC50
11,COC(=O)CSc1nc(-c2cccs2)ccc1C#N,"15800 nM [rising, single point]"
17,CCCCn1c(=N)n(CC(O)COc2ccc(C)cc2)c2ccccc21 (centres undefined),"25.1 nM [rising, full curve, poor fit]"
12,CCCCC(=O)Nc1ccc(C(=O)Nc2ccc(S(=O)(=O)N3CCCC3)cc2)cc1,"12600 nM [rising, single point]"
